These are yes or no findings as the source states them, for the method shown. In cells and extracts the contact can be indirect. Some results given as binding are weak or reduced against the parent protein; the word gives no strength. Tags and fused reporters may be left off the sequences shown.
Target: T1, FLAG-tagged GBP2 (guanylate-binding protein 2) (UniProt P32456)
T1 sequence: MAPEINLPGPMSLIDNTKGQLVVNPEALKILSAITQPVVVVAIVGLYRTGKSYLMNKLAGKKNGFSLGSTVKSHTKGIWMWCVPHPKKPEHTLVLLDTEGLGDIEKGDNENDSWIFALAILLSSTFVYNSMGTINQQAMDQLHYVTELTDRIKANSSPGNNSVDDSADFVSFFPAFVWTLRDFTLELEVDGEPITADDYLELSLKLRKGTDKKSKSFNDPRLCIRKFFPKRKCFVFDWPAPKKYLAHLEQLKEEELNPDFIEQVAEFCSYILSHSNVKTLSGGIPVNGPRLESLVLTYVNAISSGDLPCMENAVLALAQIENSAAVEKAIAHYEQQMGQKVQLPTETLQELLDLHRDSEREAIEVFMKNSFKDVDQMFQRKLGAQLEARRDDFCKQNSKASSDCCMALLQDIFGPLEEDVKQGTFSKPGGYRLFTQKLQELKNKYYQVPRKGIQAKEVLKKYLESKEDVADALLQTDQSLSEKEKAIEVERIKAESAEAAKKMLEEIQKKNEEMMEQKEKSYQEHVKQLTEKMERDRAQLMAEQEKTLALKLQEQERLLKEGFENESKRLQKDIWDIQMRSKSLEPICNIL
Test: co-IP; anti-FLAG immunoprecipitation from 1 mg whole-cell extract of cells overexpressing FLAG-tagged GBP2 or KIF22 (293T by the methods, 'glioma cells' by the results), low-salt lysis buffer, 2 h at 4 °C, three washes; SDS-PAGE and blot

- binding: binds
B1: kinesin family member 22 (KIF22) (protein, UniProt Q14807 1-665)
chain: MAAGGSTQQRRREMAAASAAAISGAGRCRLSKIGATRRPPPARVRVAVRLRPFVDGTAGASDPPCVRGMDSCSLEIANWRNHQETLKYQFDAFYGERSTQQDIYAGSVQPILRHLLEGQNASVLAYGPTGAGKTHTMLGSPEQPGVIPRALMDLLQLTREEGAEGRPWALSVTMSYLEIYQEKVLDLLDPASGDLVIREDCRGNILIPGLSQKPISSFADFERHFLPASRNRTVGATRLNQRSSRSHAVLLVKVDQRERLAPFRQREGKLYLIDLAGSEDNRRTGNKGLRLKESGAINTSLFVLGKVVDALNQGLPRVPYRDSKLTRLLQDSLGGSAHSILIANIAPERRFYLDTVSALNFAARSKEVINRPFTNESLQPHALGPVKLSQKELLGPPEAKRARGPEEEEIGSPEPMAAPASASQKLSPLQKLSSMDPAMLERLLSLDRLLASQGSQGAPLLSTPKRERMVLMKTVEEKDLEIERLKTKQKELEAKMLAQKAEEKENHCPTMLRPLSHRTVTGAKPLKKAVVMPLQLIQEQAASPNAEIHILKNKGRKRKLESLDALEPEEKAEDCWELQISPELLAHGRQKILDLLNEGSARDLRSLQRIGPKKAQLIVGWRELHGPFSQVEDLERVEGITGKQMESFLKANILGLAAGQRCGAS
